# The list shows a part of the results.
# B1: Vd7LysM (Verticillium dahliae) (protein)
# chain: RRGPEPKYPPAAGTSSYCSYWVDYEGDKSCSRVLEDNVVVLKDFARWNPTVGADCSGIKAGNSYCVEAFGEPEPIEVTTTTRAATTTTQPTATTTTFANGIATPQPTQSGMVTNCNKFHWIAEGVSCSQVISFQKITLADFVKWNPSVKSDCSGMWAGVNVCVGVVGSSTDTAKPTTTAPSNGVVTPQPTQPSMVTNCNKFHWIAKGVTCQQVISYQKISLADFVKWNPSVLSDCSGMWAEVQVCVGVIGSTPTTLATTTTTAGNGVSTPLPTQPGMVTNCAKFHWVAKGVTCNQIYSFQKITLEQFVSYNPTVKSDCSGMQAEVQVCVGLIAGTTPTTTRPPTTTAPGNGVSTPQPTQPGMVTNCAKFHWVAKGVTCNQIYSFQKITLEQFVSFNPTVKSDCTGMQAEVNVCVGLIGGNPTPTQTGNGIATPTPIQPGMVSNCKKFHWIAQGVTCQQVISFQKITLADFVKWNTGVGSDCRTMWAETNVCVGV
# Key:
# Assay in all cases: glycan array binding signal (z-score within array); higher = stronger binding
# Conditions in all cases: glycan notation: IUPAC condensed, linker removed
# [1] = target: Gal(b1-3)GalNAc(b1-3)Gal(a1-4)Gal(b1-4)Glc
# In short: (§1)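 Glycan array binding is given as a within-array Z-score, which can be read as non-binding when negative. The arrays, 3228 of them, came from the Consortium for Functional Glycomics database and were retained only where the protein sequence was available. Z-scores were averaged across arrays of the same protein sequence at different concentrations or buffers and across linkers.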
# [2] = target: Gal(b1-3)GalNAc(b1-4)Gal(b1-4)Glc
# In short: as §1
# [3] = target: Gal(b1-3)GalNAc(b1-4)[Neu5Ac(a2-3)]Gal(b1-4)Glc
# In short: as §1
# [4] = target: Gal(b1-3)GlcNAc
# In short: as §1
# [5] = target: Gal(b1-3)GlcNAc(a1-3)Gal(b1-4)GlcNAc
# In short: as §1
# [6] = target: Gal(b1-3)GlcNAc(a1-6)Gal(b1-4)GlcNAc
# In short: as §1
# [7] = target: Gal(b1-3)GlcNAc(b1-2)Man
# In short: as §1
# [8] = target: Gal(b1-3)GlcNAc(b1-2)Man(a1-3)[Gal(b1-3)GlcNAc(b1-2)Man(a1-6)]Man(b1-4)GlcNAc(b1-4)GlcNAc
# In short: as §1
# [9] = target: Gal(b1-3)GlcNAc(b1-2)Man(a1-3)[Gal(b1-3)GlcNAc(b1-2)Man(a1-6)]Man(b1-4)GlcNAc(b1-4)[Fuc(a1-6)]GlcNAc
# In short: as §1
# [10] = target: Gal(b1-3)GlcNAc(b1-2)Man(a1-3)[GlcNAc(b1-4)][Gal(b1-3)GlcNAc(b1-2)Man(a1-6)]Man(b1-4)GlcNAc(b1-4)GlcNAc
# In short: as §1
# [11] = target: Gal(b1-3)GlcNAc(b1-2)[Gal(b1-3)GlcNAc(b1-6)]Man(a1-6)[Gal(b1-3)GlcNAc(b1-2)Man(a1-3)]Man(b1-4)GlcNAc(b1-4)GlcNAc
# In short: as §1
# [12] = target: Gal(b1-3)GlcNAc(b1-3)Gal(b1-3)GlcNAc
# In short: as §1
# [13] = target: Gal(b1-3)GlcNAc(b1-3)Gal(b1-4)Glc
# In short: as §1
# [14] = target: Gal(b1-3)GlcNAc(b1-3)Gal(b1-4)GlcNAc
# In short: as §1
# [15] = target: Gal(b1-3)GlcNAc(b1-3)Gal(b1-4)GlcNAc(b1-2)Man(a1-3)[Gal(b1-3)GlcNAc(b1-3)Gal(b1-4)GlcNAc(b1-2)Man(a1-6)]Man(b1-4)GlcNAc(b1-4)GlcNAc
# In short: as §1
# [16] = target: Gal(b1-3)GlcNAc(b1-3)Gal(b1-4)GlcNAc(b1-2)[Gal(b1-3)GlcNAc(b1-3)Gal(b1-4)GlcNAc(b1-6)]Man(a1-6)[Gal(b1-3)GlcNAc(b1-3)Gal(b1-4)GlcNAc(b1-2)Man(a1-3)]Man(b1-4)GlcNAc(b1-4)[Fuc(a1-6)]GlcNAc
# In short: as §1
# [17] = target: Gal(b1-3)GlcNAc(b1-3)Gal(b1-4)GlcNAc(b1-3)Gal(b1-4)GlcNAc(b1-2)[Gal(b1-3)GlcNAc(b1-3)Gal(b1-4)GlcNAc(b1-3)Gal(b1-4)GlcNAc(b1-6)]Man(a1-6)[Gal(b1-3)GlcNAc(b1-3)Gal(b1-4)GlcNAc(b1-3)Gal(b1-4)GlcNAc(b1-2)Man(a1-3)]Man(b1-4)GlcNAc(b1-4)[Fuc(a1-6)]GlcNAc
# In short: as §1
# [18] = target: Gal(b1-3)GlcNAc(b1-3)Gal(b1-4)GlcNAc(b1-6)[Gal(b1-3)GlcNAc(b1-3)]Gal(b1-4)Glc
# In short: as §1
# [19] = target: Gal(b1-3)GlcNAc(b1-3)Gal(b1-4)[Fuc(a1-3)]GlcNAc
# In short: as §1
# [20] = target: Gal(b1-3)GlcNAc(b1-3)Gal(b1-4)[Fuc(a1-3)]GlcNAc(b1-6)[Gal(b1-3)GlcNAc(b1-3)]Gal(b1-4)Glc
# In short: as §1
# [21] = target: Gal(b1-3)GlcNAc(b1-3)GalNAc
# In short: as §1
# [22] = target: Gal(b1-3)GlcNAc(b1-6)Gal(b1-4)GlcNAc
# In short: as §1
# [23] = target: Gal(b1-3)GlcNAc(b1-6)GalNAc
# In short: as §1
# [24] = target: Gal(b1-3)GlcNAc(b1-6)[Gal(b1-3)]GalNAc
# In short: as §1
# [25] = target: Gal(b1-3)GlcNAc6S
# In short: as §1
# [26] = target: Gal(b1-3)[Fuc(a1-4)]GlcNAc
# In short: as §1
# [27] = target: Gal(b1-3)[Fuc(a1-4)]GlcNAc(b1-2)Man
# In short: as §1
# [28] = target: Gal(b1-3)[Fuc(a1-4)]GlcNAc(b1-2)Man(a1-3)[Gal(b1-3)[Fuc(a1-4)]GlcNAc(b1-2)Man(a1-6)]Man(b1-4)GlcNAc(b1-4)[Fuc(a1-6)]GlcNAc
# In short: as §1
# [29] = target: Gal(b1-3)[Fuc(a1-4)]GlcNAc(b1-3)Gal(b1-3)[Fuc(a1-4)]GlcNAc
# In short: as §1
# [30] = target: Gal(b1-3)[Fuc(a1-4)]GlcNAc(b1-3)Gal(b1-4)[Fuc(a1-3)]GlcNAc
# In short: as §1
# [31] = target: Gal(b1-3)[Fuc(a1-4)]GlcNAc(b1-6)GalNAc
# In short: as §1
# [32] = target: Gal(b1-3)[GlcNAc(b1-6)]GalNAc
# In short: as §1
# [33] = target: Gal(b1-3)[Neu5Ac(a2-6)]GalNAc
# In short: as §1
# [34] = target: Gal(b1-3)[Neu5Ac(a2-6)]GlcNAc(b1-4)Gal(b1-4)Glc
# In short: as §1
# [35] = target: Gal(b1-3)[Neu5Ac(b2-6)]GalNAc
# In short: as §1
# [36] = target: Gal(b1-4)Gal
# In short: as §1
# [37] = target: Gal(b1-4)GalNAc(a1-3)[Fuc(a1-2)]Gal(b1-4)GlcNAc
# In short: as §1
# [38] = target: Gal(b1-4)GalNAc(b1-3)[Fuc(a1-2)]Gal(b1-4)GlcNAc
# In short: as §1
binder,measurement,setting,value
B1,glycan array binding signal (z-score),[1],-0.878
same,glycan array binding signal (z-score),[2],2.86
same,glycan array binding signal (z-score),[3],-0.55
same,glycan array binding signal (z-score),[4],-0.186
same,glycan array binding signal (z-score),[5],0.094
same,glycan array binding signal (z-score),[6],-0.139
same,glycan array binding signal (z-score),[7],-0.306
same,glycan array binding signal (z-score),[8],-0.135
same,glycan array binding signal (z-score),[9],0.031
same,glycan array binding signal (z-score),[10],-0.536
same,glycan array binding signal (z-score),[11],-0.11
same,glycan array binding signal (z-score),[12],0.352
same,glycan array binding signal (z-score),[13],0.816
same,glycan array binding signal (z-score),[14],0.928
same,glycan array binding signal (z-score),[15],-0.175
same,glycan array binding signal (z-score),[16],1.95
same,glycan array binding signal (z-score),[17],1.82
same,glycan array binding signal (z-score),[18],-1.41
same,glycan array binding signal (z-score),[19],-2.84
same,glycan array binding signal (z-score),[20],-0.547
same,glycan array binding signal (z-score),[21],0.861
same,glycan array binding signal (z-score),[22],1.31
same,glycan array binding signal (z-score),[23],-0.265
same,glycan array binding signal (z-score),[24],-0.142
same,glycan array binding signal (z-score),[25],-0.63
same,glycan array binding signal (z-score),[26],-0.618
same,glycan array binding signal (z-score),[27],-0.46
same,glycan array binding signal (z-score),[28],0.346
same,glycan array binding signal (z-score),[29],1.63
same,glycan array binding signal (z-score),[30],0.324
same,glycan array binding signal (z-score),[31],-0.63
same,glycan array binding signal (z-score),[32],-0.603
same,glycan array binding signal (z-score),[33],0.094
same,glycan array binding signal (z-score),[34],-0.885
same,glycan array binding signal (z-score),[35],0.809
same,glycan array binding signal (z-score),[36],-0.47
same,glycan array binding signal (z-score),[37],-1.77
same,glycan array binding signal (z-score),[38],-0.628

# 2 successive entries out of the list so far, quoted:
binder,measurement,setting,value
B1,glycan array binding signal (z-score),[8],-0.135
same,glycan array binding signal (z-score),[9],0.031

# — the supplement of paper PMC8728848
